The values below come from article PMC9114114.

Protein sequences, listed by entry. Tags and fused reporters are not part of them.
UniProt Q9H1Y0: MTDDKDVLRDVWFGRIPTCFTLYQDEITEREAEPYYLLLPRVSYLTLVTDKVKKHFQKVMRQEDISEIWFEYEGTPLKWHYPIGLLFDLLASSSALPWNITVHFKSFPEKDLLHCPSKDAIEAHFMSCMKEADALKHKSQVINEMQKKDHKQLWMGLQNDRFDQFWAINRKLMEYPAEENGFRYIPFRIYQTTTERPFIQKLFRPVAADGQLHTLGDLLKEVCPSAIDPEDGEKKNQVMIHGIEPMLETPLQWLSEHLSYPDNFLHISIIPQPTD
UniProt P12956: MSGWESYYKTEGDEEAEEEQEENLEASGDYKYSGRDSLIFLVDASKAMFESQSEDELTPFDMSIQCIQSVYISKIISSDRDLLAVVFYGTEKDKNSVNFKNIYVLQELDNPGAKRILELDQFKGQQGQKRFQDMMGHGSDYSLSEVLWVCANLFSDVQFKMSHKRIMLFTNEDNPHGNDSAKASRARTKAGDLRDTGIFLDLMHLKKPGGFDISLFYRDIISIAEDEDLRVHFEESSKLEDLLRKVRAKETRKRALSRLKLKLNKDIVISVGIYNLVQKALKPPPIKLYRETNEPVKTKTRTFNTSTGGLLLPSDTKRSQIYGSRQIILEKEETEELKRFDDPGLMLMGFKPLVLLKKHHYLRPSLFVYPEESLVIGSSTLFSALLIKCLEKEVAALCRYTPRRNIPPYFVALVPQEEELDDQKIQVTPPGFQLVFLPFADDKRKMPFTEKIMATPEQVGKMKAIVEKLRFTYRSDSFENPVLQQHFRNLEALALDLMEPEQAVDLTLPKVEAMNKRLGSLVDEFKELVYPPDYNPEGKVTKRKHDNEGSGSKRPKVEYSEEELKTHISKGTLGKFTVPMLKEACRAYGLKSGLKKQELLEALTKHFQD
UniProt P78527: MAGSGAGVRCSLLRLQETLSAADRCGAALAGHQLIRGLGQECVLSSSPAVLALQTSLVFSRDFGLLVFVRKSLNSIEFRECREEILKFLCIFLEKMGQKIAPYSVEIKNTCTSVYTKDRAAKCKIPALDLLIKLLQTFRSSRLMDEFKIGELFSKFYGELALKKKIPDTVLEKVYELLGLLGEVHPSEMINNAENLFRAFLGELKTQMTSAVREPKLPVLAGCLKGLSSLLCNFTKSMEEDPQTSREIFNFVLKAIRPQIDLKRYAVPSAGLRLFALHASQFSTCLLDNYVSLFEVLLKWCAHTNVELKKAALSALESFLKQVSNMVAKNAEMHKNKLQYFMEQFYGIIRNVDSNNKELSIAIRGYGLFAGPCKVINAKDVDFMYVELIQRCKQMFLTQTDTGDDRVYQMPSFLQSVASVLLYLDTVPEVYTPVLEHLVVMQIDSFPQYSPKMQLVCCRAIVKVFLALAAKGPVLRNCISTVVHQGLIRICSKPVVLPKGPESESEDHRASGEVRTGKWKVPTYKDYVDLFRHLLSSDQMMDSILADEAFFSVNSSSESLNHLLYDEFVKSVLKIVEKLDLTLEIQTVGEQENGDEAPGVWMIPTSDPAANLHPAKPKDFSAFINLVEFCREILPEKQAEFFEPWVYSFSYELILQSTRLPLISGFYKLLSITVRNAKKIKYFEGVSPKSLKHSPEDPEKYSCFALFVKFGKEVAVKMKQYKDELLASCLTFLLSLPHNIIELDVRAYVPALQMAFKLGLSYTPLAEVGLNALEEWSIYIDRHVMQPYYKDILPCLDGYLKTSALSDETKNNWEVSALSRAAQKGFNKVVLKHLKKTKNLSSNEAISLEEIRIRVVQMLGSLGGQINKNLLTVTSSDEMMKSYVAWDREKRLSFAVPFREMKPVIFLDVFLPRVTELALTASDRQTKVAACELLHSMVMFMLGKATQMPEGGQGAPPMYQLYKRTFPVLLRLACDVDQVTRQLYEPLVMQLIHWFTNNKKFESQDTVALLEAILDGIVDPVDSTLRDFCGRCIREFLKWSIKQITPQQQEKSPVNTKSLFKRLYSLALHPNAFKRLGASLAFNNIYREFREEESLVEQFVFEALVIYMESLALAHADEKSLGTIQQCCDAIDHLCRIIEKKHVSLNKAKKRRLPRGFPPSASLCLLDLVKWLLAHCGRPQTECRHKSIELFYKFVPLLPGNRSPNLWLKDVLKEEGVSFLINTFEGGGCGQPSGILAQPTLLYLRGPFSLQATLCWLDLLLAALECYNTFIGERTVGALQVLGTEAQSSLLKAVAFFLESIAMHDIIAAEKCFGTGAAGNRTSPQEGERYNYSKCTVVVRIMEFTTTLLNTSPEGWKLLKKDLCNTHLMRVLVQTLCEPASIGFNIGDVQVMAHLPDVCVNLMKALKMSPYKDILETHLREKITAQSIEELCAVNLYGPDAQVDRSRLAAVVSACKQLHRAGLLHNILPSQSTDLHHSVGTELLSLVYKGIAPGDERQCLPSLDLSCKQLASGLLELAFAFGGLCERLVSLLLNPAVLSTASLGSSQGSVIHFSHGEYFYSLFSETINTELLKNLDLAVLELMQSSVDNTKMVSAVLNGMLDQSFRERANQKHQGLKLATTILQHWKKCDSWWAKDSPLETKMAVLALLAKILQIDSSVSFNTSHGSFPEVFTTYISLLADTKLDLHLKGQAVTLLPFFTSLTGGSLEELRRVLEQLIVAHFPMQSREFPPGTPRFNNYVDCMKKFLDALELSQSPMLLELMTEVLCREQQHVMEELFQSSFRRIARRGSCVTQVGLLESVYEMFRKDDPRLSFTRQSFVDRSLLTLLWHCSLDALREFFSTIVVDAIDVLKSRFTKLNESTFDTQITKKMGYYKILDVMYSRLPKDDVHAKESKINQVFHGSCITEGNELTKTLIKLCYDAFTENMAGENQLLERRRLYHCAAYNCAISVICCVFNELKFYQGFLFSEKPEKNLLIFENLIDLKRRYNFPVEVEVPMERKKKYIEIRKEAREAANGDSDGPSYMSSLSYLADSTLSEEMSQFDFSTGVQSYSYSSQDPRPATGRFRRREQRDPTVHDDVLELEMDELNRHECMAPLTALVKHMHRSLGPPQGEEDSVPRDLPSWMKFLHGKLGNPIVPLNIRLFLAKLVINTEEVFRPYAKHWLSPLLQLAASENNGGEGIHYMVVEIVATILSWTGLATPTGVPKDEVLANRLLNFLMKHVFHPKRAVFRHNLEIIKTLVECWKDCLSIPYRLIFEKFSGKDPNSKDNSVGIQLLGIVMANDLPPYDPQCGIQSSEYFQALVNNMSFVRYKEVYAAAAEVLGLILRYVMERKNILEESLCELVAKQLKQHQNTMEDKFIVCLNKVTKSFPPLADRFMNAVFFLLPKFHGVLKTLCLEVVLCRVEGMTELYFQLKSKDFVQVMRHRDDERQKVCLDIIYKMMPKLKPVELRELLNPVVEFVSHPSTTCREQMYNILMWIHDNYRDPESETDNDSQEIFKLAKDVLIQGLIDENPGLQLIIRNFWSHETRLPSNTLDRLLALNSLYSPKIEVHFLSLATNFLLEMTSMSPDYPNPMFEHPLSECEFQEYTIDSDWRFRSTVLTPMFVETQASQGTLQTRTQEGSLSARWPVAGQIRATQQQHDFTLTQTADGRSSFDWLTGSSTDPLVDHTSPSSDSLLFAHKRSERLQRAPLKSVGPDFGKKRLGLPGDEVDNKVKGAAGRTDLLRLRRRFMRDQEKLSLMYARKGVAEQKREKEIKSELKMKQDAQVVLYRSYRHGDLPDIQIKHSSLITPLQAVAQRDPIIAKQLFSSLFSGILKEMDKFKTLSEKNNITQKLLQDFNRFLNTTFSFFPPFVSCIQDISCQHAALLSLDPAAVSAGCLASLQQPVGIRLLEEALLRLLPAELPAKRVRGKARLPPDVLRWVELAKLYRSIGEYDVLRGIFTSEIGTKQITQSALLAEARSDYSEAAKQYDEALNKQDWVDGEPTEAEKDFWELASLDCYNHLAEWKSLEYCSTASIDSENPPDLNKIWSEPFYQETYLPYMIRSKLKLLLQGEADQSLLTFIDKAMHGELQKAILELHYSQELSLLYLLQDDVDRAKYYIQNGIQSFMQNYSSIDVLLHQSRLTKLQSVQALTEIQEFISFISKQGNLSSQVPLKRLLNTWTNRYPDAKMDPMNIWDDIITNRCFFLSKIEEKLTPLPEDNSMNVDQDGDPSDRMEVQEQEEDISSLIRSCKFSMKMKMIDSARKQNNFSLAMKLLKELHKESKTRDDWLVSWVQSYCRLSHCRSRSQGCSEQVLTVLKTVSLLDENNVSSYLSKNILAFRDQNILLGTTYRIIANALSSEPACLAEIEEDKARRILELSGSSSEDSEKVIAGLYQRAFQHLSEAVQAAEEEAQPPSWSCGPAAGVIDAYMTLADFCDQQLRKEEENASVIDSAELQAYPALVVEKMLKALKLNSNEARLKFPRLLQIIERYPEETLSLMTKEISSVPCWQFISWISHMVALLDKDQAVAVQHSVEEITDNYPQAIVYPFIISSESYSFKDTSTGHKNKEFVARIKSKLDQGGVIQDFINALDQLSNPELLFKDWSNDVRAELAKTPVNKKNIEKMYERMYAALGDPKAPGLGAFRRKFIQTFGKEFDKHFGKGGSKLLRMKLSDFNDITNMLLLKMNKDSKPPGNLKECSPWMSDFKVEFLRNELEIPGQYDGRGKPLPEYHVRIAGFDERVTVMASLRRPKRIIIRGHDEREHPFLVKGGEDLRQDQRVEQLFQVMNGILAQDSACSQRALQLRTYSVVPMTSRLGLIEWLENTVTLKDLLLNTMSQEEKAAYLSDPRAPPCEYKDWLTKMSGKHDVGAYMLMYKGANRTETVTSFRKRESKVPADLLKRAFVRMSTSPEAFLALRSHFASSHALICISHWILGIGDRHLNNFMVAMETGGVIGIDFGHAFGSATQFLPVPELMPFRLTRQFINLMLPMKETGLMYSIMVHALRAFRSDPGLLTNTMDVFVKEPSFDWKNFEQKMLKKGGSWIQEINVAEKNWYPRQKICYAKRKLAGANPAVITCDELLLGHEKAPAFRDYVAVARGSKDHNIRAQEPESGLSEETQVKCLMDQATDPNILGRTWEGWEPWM

These are yes or no findings as the source states them, for the method shown. In cells and extracts the contact can be indirect. Here binding means that the protein was enriched with, or labelled near, the bait; the list need not be complete.

In the test the target is Flag-tagged ATG5 (human) (UniProt Q9H1Y0). The experiment in a line: affinity purification with mass spectrometry; Tri-SILAC labelling and LC-MS/MS; Flag-tagged ATG5 as bait, extracts of HEK293T and HeLa cells.

Regarding “endogenous Ku70 (from UniProt P12956 1-609)”, the binding result was “binds”.

“DNA-dependent protein kinase catalytic subunit (from UniProt P78527 1-4128)”: the binding result is “binds”.
